Reference: patent publication US20170058032A1 (published 2017)
Positions count from the first letter of the chain named. Results are given in words; binding and its absence hold for the method and conditions named. Some binding calls cover weakened binding; strength is not graded here. Each block holds one binder with its values, some of them ahead of it.

Amino acid sequences for entries named in this document (tags omitted). A change or cut given only in a name is not applied to a line headed by its entry.
UniProt P40259: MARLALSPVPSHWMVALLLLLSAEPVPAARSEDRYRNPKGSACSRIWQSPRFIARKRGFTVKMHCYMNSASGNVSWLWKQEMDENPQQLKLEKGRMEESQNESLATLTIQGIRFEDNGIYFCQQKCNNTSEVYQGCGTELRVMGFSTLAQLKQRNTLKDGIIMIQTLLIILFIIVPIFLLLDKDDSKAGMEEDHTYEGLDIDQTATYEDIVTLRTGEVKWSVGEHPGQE

Experiments:
[1] = molecular target: human CD79b on cells (DoHH-2, BJAB, BJAB-luciferase) (human) (UniProt P40259); assay: FACS on DoHH-2 cells
[2] = molecular target: extracellular domain of human CD79b (huCD79becd) (human) (UniProt P40259); assay: phage selection on plate-bound antigen

binding [1]: binds
binding [2]: binds
B1: huMA79b H1-1, Fab (graft variant, SEQ ID NO: 67) (Fab, name in Kabat numbering, V domains shown)
VH: EVQLVESGGGLVQPGGSLRLSCAASGYPFNRYWINWVRQAPGKGLEWVGEILPGGGDTNYNEIFKGRFTISADTSKNTAYLQMNSLRAEDTAVYYCTRRVPVYFDYWGQGTLVTVSS
VL: DIQMTQSPSSLSASVGDRVTITCKASQSVDYDGDSFLNWYQQKPGKAPKLLIYAASNLESGVPSRFSGSGSGTDFTLTISSLQPEDFATYYCQQSNEDPLTFGQGTKVEIKR

binding [2]: binds
B2: huMA79b graft variant, SEQ ID NO: 54 (Fab, name in Kabat numbering, V domains shown)
VH: B1 VH with N30T, N35S
VL: B1 VL

binding [2]: binds
B3: huMA79b graft variant, SEQ ID NO: 53 (Fab, name in Kabat numbering, V domains shown)
VH: B1 VH with P28T, N30S, R31S, N35E
VL: B1 VL with Q93D, S95R, E97A

binding [2]: binds
B4: huMA79b graft variant, SEQ ID NO: 51 (Fab, name in Kabat numbering, V domains shown)
VH: B1 VH with P28T, N30S, R31S, N35E
VL: B1 VL with Q93N, Q94N, E97G, T101N

binding [2]: binds
B5: huMA79b graft variant, SEQ ID NO: 52 (Fab, name in Kabat numbering, V domains shown)
VH: B1 VH with P28T, N30S, R31S, N35E
VL: B1 VL with Q94P, S95D, D98A, L100R
